Results: US20090233811A1, “Manufacture of Array Chips” (Randox Laboratories Ltd., priority 2005, published 2009)

Assay: Interference of dye in spotting buffer with chemiluminescent micro-spot immunoassay
Settings: dye added to spotting buffer; produced pale colour on the substrate

Fast Yellow
Interference with the chemiluminescent micro-spot immunoassay: non-interfering
